# Data: PubChem BioAssay AID1508600 (Functional Genomics Laboratory (NCATS/FGL), 2020)
# The whole screen tested about 53,000 sequences, of which about 3,700 (7%) were called active.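 The calls were made as follows: active = gene knockdowns whose robust z-score for IL-1 alpha signal is at least 2 or at most -2, so actives lie on both sides; inactive = the rest.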 Some of the results follow.
# Test: Components of the Cytosolic LPS Sensing Pathway: Gene Identification via Genome-wide siRNA Screen;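 also: robust z of the log signal after scaling to non-targeting control siRNA wells of the plate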
# Conditions: RAW264.7 macrophages, IL-1a HTRF, actives lie on both sides, screened at 100 nM (by protocol), cells primed 5 h with Pam3CSK4 first
# In short: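 Using IL-1a HTRF as read-out, the screen measured release from RAW264.7 cells after 48h siRNA knockdown (100 nM), 5 h Pam3CSK4 priming and 24 h cytosolic LipidA. Values were expressed relative to negative-control wells as robust z-scores.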
row,Sequence,z-score
1,GCCCUUAACAGAAAAACUATT against Hmgcl,inactive: -0.589
2,GGCAAGCCAGAGAAACUGATT against Rbm42,active: 6.18
3,GGCUGUUACUCUCUCUCUCTT against Ly6g6g,inactive: 1.16
4,CCGGAUUAAUGAUGCAAUGTT against Coq9,inactive: -0.499
5,GGAUCUCCGGACAUUUAAGTT against Col28a1,inactive: 1.96
6,GGACUGAUUGUUUUAUGCUTT against Gdap10,inactive: -1.06
7,GCACAUUGGCAUUGUGUAUTT against Pdxk,inactive: 0.952
8,CGAGUUCCACAGUGAAAUATT against Cyp2c70,inactive: -1.36
9,GGGAUUGAGGGAGAUUUUCTT against Tedc2,inactive: -0.206
10,GCCAAUUGAGUCGUCUAUCTT against Rps6ka1,active: 2.41
11,GCAUCCUUGACCGAUACUATT against Psmb2,active: -2.78
12,GCGGUGCUGUUUUCCUUAUTT against Dpagt1,inactive: -0.544
13,GGCAGGGUAGCCAAACAAATT against Cenpt,inactive: -1.45
14,GGACAUCAACAUUAUCACUTT against Chn1,inactive: -1.42
15,GGGUUGCCAUCGAGACAAGTT against Nelfe,inactive: 0.823
16,CGAUCCAUUUCCUUACGACTT against Cyp20a1,inactive: 0.233
17,GGCUUUCGCCUGAUUGGGUTT against Rhbdl2,inactive: -0.707
18,GGCUCUUUGAUCACCAUUGTT against Fam210a,inactive: -0.903
19,GGAGAGUACUAAAUUUAAGTT against Dcaf17,inactive: 1.87
20,GCCAAGUGGGACAAAUUCGTT against Dync2h1,inactive: -1.59
21,GGCAAAAUAAGGAGCUAGATT against Itpkc,inactive: -0.228
22,CCAUGGUCCUUGUCGUCAUTT against Kir3dl1,inactive: 0.315

row,Sequence,z-score
1,GGCCUGUAAAAACUAUUGGTT against Mcpt4,inactive: 0.122
2,CGAAUGUUCGAGGUUUAUUTT against Ctdspl,inactive: 1.06
3,GCCUUUGCGCAAAAUGGUCTT against Zfp933,inactive: -0.073
4,CCCUUUAUUAUUCCACUGUTT against Olfr530,inactive: -1.12
5,GGAGCUCAUUAGCAAAUAUTT against Olfm5,inactive: -0.859
6,GGAACAACUUUCAUCUCACTT against Anxa10,inactive: 1.34
7,GCGGUACAACCAAAAAGACTT against Krt72,inactive: 0.143
8,GGGACAAUUGGAAAGGCGATT against Wdr55,inactive: 0.507
9,GGCAGAGAAAAGGACCUUUTT against Mcts2,inactive: -1.32
10,GGACUCUAAGUUGUGAAUUTT against Pten,inactive: -0.351
11,GGUGCCAACUUUAAAAGCUTT against Zbtb14,inactive: 0.937
12,GGAAAAGAAGAGGAUGGAGTT against Vpreb1,inactive: -1.61
13,UCUGCGCACUAAAUGCAUCTT against Olfr46,inactive: 0.612
14,GGCAAAAAGUCAUUGCCAATT against Slc26a9,inactive: 0.272
15,GCCUGGUCUCACUAUGUAGTT against Hpvc2,inactive: 0.129
16,GGUAGAGAAACCUAGUGUUTT against Map6,inactive: 0.218
17,GGACUUUCUGAGUAAGAAUTT against Coa8,inactive: -0.873
18,GCCAACCAUCUUUUGACAGTT against Inka2,inactive: 1.3
19,GCAACCAUUUAAGAAGACCTT against Tnfrsf9,inactive: -0.301
20,CCAGCUUUCAUUAACUUUATT against Ppp1r10,inactive: -0.571
21,GGUGAUGAAAAGAAUUGCATT against Pitrm1,inactive: 0.417
22,CCUGAGAAAACUUCUUACUTT against Maged1,inactive: -0.592

row,Sequence,z-score
1,GCGUAUCAAGAAUUUGUCCTT against Mtus1,inactive: -0.9
2,GGAAAAAAACCGCUAUGUATT against Ptpra,inactive: -1.02
3,GGGAAGAUUUUUCUGAUCUTT against Kcnk13,inactive: -1.52
4,CCAAAAAGAGCGAUUACCCTT against Shc1,inactive: 0.368
5,GGUUCCAACAGGAGAGAACTT against Med23,inactive: 0.692
6,GGUACAGGUUGGCAUUGAUTT against Aasdhppt,inactive: -0.342
7,GGUAAAACCGUUUUUGACATT against Zfp830,inactive: -0.493
8,AUAAAAGUGACUCACCAACTT against A4galt,inactive: 0.543
9,GGACUGAUUCGUCUAAUACTT against Ckap2,inactive: -0.0467
10,GCUCGUCGGCUUUUUGUAATT against Spag6,inactive: -1.35
11,GGCGACUUAUUAAAAUCCUTT against Fads3,inactive: 0.445
12,GCCAGGUUUACCUAAGAGGTT against Rhog,inactive: -0.819
13,CCAGUCGUGUUACAAUGUUTT against Fam187a,inactive: 0.29
14,GGCCGAACCAUCUCAUACCTT against Olfr976,inactive: -0.553
15,GGUACUGGAUCAAAGAAACTT against Gm11992,inactive: -1.75
16,GGAGAGAGAAUGAAAGUCATT against Usf3,inactive: 0.0464
17,GGAGAGUACUGCCAGACUCTT against Ring1,inactive: 1.61
18,GGACAAACUCUUGCUCUCCTT against Chpt1,inactive: 0.42
19,GCUUGUCGAGAAACUCUGGTT against Cfap69,inactive: 1.02
20,GGUUGAAGAGCAUGAGAGCTT against A330041J22Rik,inactive: 1.01
21,GGAUAUCUCACUGCUUUUATT against Mpp5,active: 2.13
22,GGAUCUGAAAGAUCAGAUUTT against Lmnb1,inactive: 0.949

row,Sequence,z-score
1,GGAAGAAGAAGGAAGAUGATT against Cfdp1,inactive: -0.577
2,GGAAAAGGAAAGGACUAAGTT against Mdk,inactive: -0.689
3,GGCAACACUGUUUUAACCGTT against Agbl1,inactive: -0.212
4,GCAUGUAGUAUGGUAACACTT against Akr1b7,inactive: -1.78
5,GGGAUAAGACAGGAGACUUTT against Slc16a11,inactive: 0.227
6,GGACUUCCAUAAGAUGAAATT against Nrap,inactive: -0.542
7,GGCAAUUGCUGGGUUUCCATT against Marcksl1,inactive: 1.08
8,UUGGUUCAACCUCAUCAUATT against Olfr869,active: 2.07
9,CGAUCUAGUCAACAUCAAATT against Fcer2a,inactive: 1.16
10,GGUCGAUAUAAUCCUAGAGTT against Chrna5,inactive: -0.516
11,GCCAUACGCUGACCUUUCATT against Sp7,inactive: -1.82
12,GCUAGUAUCAUGGAACCUCTT against Gpat3,inactive: 0.371
13,CCAACACCUAAUAUUACUCTT against Lrig2,inactive: 0.339
14,CCACCUGUCGAGAUGUCGUTT against Ppp1r13b,inactive: 1.1
15,GGUGUUGUGCACAUAUAUGTT against Tom1l2,inactive: -1.62
16,GGUUUUGUAGGAGUCUCUCTT against Vmn1r54,inactive: 0.247
17,GCCACAAGUAGUUGUGGUATT against Akr1c20,inactive: 0.376
18,GGUCACGUCAGCAAAGCAATT against B930095G15Rik,active: -2.73
19,GGAAUUCAGCGAUUUAUACTT against Smox,inactive: -0.109
20,GGACCCUCUGGAUUAAUCGTT against Mrpl20,inactive: 0.0985
21,GGAAUUGGGUAGUACAAAATT against Irak1,inactive: 0.282
22,GGGUGAUUUCUAUUCACUATT against Pam,inactive: -0.633

# Look-ups from the list:
# For z-score, GCUAGUAUCAUGGAACCUCTT against Gpat3 has inactive: 0.371
# For z-score, GGGUGAUUUCUAUUCACUATT against Pam has inactive: -0.633
# For z-score, GCAUGUAGUAUGGUAACACTT against Akr1b7 has inactive: -1.78
# For z-score, GGGAUAAGACAGGAGACUUTT against Slc16a11 has inactive: 0.227
# For z-score, GGAAGAAGAAGGAAGAUGATT against Cfdp1 has inactive: -0.577
# For z-score, GCCACAAGUAGUUGUGGUATT against Akr1c20 has inactive: 0.376

# Next part

row,Sequence,z-score
1,GGAAGUUUACAGCUUUGAATT against Ccdc38,inactive: 0.543
2,GGAAGAAGUAGACCUGUCUTT against Aar2,active: -2.36
3,GGAUGGAAAAUAAAACAGGTT against Hoxb7,inactive: -0.651
4,GGAUCCUCUUGAUCAAGCUTT against Vps53,inactive: -0.891
5,CUUACAGUUGCGUCCACUGTT against Ypel4,inactive: -0.229
6,GGAUGACCUCAAGUAUAAGTT against Mob3b,inactive: -0.37
7,CGAAGACCCUCAUAUAGAATT against Crem,inactive: -0.0829
8,GCUAUUGGGACUUAGAACATT against Slc26a9,inactive: 0.191
9,GCAUCCCAGAUAUUGAGCATT against Arrdc1,active: 2.52
10,GGAGUCCUAUGUGCUGAAATT against Treml4,inactive: 0.555
11,GGUGAACGAUGUCAAUAAGTT against Pdxk,inactive: -0.318
12,GACAGUUACCAACUUCUACTT against Kiss1r,inactive: -0.202
13,GCUCUUACAUAUCAAGCUUTT against Styxl1,inactive: -0.352
14,GGUUCUAUACAAUCCUGAATT against Obi1,inactive: 0.548
15,GUUCCCAAAGUCUCAUGUUTT against Mef2b,inactive: -0.564
16,GCCACGGAAAAUAGGGAAGTT against Irf7,inactive: 0.998
17,GGUUCGGGAGACACCUCUUTT against Fam53b,inactive: -0.338
18,GCUACGAGCAGUUUUUAUUTT against Ptgs1,inactive: 0.885
19,GCAAGUUGGCGUGAAGAUATT against Col9a1,inactive: -0.343

# Two entries picked at random from the list so far:
row,Sequence,z-score
19,GGAGAGUACUAAAUUUAAGTT against Dcaf17,inactive: 1.87
15,GGGUUGCCAUCGAGACAAGTT against Nelfe,inactive: 0.823
